These are yes or no findings as the source states them, for the method shown. In cells and extracts the contact can be indirect. Here binding means that the protein was enriched with, or labelled near, the bait; the list need not be complete. Each block holds one molecule with its values, some of them ahead of it.
Legend:
[1] = target: HA-tagged AP2σ2 p.Arg10Trp variant (human) (UniProt P53680); assay: affinity purification with mass spectrometry
[2] = target: HA-tagged wild-type AP2σ2 (Adaptor-Related Protein Complex 2 Sigma-1 Subunit) (human) (UniProt P53680); assay: affinity purification with mass spectrometry

Amino acid sequences for entries named in this document (tags omitted). A change or cut given only in a name is not applied to a line headed by its entry. Chains listed by the source or under a name are the forms on record and can include a tag or linker.
HA-tagged AP2σ2 p.Arg10Trp variant (P53680, form named): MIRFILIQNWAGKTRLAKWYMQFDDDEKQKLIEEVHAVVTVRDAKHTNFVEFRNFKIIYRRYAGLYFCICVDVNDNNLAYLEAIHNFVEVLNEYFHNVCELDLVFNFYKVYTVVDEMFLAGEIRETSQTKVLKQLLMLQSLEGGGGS
HA-tagged wild-type AP2σ2 (Adaptor-Related Protein Complex 2 Sigma-1 Subunit) (P53680, form named): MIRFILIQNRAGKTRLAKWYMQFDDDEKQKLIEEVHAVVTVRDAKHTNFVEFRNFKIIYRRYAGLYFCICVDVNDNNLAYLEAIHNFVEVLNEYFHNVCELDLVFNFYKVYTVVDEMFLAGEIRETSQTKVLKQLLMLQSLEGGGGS
UniProt Q9NSY1: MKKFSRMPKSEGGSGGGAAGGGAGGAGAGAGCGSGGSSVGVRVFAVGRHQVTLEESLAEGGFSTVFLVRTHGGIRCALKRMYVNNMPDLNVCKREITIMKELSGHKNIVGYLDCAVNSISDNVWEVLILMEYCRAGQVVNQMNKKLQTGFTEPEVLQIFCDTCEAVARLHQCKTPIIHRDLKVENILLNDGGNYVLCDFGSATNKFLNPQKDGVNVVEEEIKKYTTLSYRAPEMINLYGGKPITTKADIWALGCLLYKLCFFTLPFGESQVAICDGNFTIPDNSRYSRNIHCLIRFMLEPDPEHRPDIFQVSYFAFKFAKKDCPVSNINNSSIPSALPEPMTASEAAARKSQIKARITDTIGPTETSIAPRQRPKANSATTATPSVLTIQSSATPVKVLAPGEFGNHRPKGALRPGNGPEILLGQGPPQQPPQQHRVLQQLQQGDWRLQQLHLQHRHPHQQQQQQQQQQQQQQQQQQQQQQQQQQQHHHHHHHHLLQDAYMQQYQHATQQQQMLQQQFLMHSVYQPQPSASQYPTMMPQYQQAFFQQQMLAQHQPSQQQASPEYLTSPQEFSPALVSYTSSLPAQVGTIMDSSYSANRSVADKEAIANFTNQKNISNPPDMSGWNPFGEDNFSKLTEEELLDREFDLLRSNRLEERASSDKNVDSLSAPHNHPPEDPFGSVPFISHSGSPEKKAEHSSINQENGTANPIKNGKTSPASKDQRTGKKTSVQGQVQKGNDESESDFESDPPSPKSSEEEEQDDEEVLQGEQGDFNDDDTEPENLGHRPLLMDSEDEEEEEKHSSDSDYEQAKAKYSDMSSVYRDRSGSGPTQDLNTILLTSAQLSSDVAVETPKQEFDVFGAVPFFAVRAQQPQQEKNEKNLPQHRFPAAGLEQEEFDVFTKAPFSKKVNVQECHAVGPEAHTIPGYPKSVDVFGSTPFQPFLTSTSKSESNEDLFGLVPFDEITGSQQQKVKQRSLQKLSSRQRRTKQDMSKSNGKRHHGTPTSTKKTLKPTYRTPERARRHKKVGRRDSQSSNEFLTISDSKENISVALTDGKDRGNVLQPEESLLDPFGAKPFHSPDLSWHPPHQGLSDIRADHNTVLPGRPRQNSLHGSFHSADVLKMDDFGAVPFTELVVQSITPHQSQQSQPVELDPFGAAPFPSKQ
UniProt Q0JRZ9: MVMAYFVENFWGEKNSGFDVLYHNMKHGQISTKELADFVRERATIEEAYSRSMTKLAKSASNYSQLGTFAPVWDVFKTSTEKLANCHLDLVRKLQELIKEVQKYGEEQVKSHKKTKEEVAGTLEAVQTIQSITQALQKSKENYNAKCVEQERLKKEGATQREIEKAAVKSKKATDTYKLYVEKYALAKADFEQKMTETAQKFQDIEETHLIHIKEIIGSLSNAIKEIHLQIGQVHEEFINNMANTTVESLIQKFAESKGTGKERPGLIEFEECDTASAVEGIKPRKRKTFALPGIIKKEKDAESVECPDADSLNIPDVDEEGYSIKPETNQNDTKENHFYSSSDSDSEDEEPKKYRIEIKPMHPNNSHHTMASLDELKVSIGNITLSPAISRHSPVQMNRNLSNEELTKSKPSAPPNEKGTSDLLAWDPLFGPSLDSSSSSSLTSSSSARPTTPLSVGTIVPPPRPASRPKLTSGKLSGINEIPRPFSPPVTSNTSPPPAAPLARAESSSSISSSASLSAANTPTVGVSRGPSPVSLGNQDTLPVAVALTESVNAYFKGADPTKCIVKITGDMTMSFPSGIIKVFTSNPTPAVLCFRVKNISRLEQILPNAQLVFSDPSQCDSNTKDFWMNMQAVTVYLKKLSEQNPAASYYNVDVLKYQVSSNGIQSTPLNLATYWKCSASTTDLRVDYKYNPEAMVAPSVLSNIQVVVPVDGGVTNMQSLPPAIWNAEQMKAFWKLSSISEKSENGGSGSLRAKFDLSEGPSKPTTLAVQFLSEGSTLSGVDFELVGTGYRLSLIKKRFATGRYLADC

- binding [1]: binds
- binding [2]: binds
Molecule: Bone morphogenic protein-2 inducible protein kinase (from UniProt Q9NSY1 1-1161)

- binding [1]: binds
- binding [2]: binds
Molecule: Fes/CIP4 homology and mu domain containing endocytic adaptor 2 (from UniProt Q0JRZ9 1-810)

- binding [2]: binds
Molecule: Intersectin 1 (as identified by LC-MS/MS, isoform not told) (from UniProt Q15811-2)

- binding [1]: binds
- binding [2]: binds
B1: RalA binding protein 1-associated Eps domain containing protein 1 (protein, UniProt Q96D71 1-796)
chain: MEGLTLSDAEQKYYSDLFSYCDIESTKKVVVNGRVLELFRAAQLPNDVVLQIMELCGATRLGYFGRSQFYIALKLVAVAQSGFPLRVESINTVKDLPLPRFVASKNEQESRHAASYSSDSENQGSYSGVIPPPPGRGQVKKGSVSHDTVQPRTSADAQEPASPVVSPQQSPPTSPHTWRKHSRHPSGGNSERPLAGPGPFWSPFGEAQSGSSAGDAVWSGHSPPPPQENWVSFADTPPTSTLLTMHPASVQDQTTVRTVASATTAIEIRRQSSSYDDPWKITDEQRQYYVNQFKTIQPDLNGFIPGSAAKEFFTKSKLPILELSHIWELSDFDKDGALTLDEFCAAFHLVVARKNGYDLPEKLPESLMPKLIDLEDSADVGDQPGEVGYSGSPAEAPPSKSPSMPSLNQTWPELNQSSEQWETFSERSSSSQTLTQFDSNIAPADPDTAIVHPVPIRMTPSKIHMQEMELKRTGSDHTNPTSPLLVKPSDLLEENKINSSVKFASGNTVADGYSSSDSFTSDPEQIGSNVTRQRSHSGTSPDNTAPPPPPPRPQPSHSRSSSLDMNRTFTVTTGQQQAGVVAHPPAVPPRPQPSQAPGPAVHRPVDADGLITHTSTSPQQIPEQPNFADFSQFEVFAASNVNDEQDDEAEKHPEVLPAEKASDPASSLRVAKTDSKTEEKTAASAPANVSKGTTPLAPPPKPVRRRLKSEDELRPEVDEHTQKTGVLAAVLASQPSIPRSVGKDKKAIQASIRRNKETNTVLARLNSELQQQLKDVLEERISLEVQLEQLRPFSHL

- binding [1]: binds
- binding [2]: binds
B2: AP3 subunit beta-1 (protein, UniProt O00203 1-1094)
chain: MSSNSFPYNEQSGGGEATELGQEATSTISPSGAFGLFSSDLKKNEDLKQMLESNKDSAKLDAMKRIVGMIAKGKNASELFPAVVKNVASKNIEIKKLVYVYLVRYAEEQQDLALLSISTFQRALKDPNQLIRASALRVLSSIRVPIIVPIMMLAIKEASADLSPYVRKNAAHAIQKLYSLDPEQKEMLIEVIEKLLKDKSTLVAGSVVMAFEEVCPDRIDLIHKNYRKLCNLLVDVEEWGQVVIIHMLTRYARTQFVSPWKEGDELEDNGKNFYESDDDQKEKTDKKKKPYTMDPDHRLLIRNTKPLLQSRNAAVVMAVAQLYWHISPKSEAGIISKSLVRLLRSNREVQYIVLQNIATMSIQRKGMFEPYLKSFYVRSTDPTMIKTLKLEILTNLANEANISTLLREFQTYVKSQDKQFAAATIQTIGRCATNILEVTDTCLNGLVCLLSNRDEIVVAESVVVIKKLLQMQPAQHGEIIKHMAKLLDSITVPVARASILWLIGENCERVPKIAPDVLRKMAKSFTSEDDLVKLQILNLGAKLYLTNSKQTKLLTQYILNLGKYDQNYDIRDRTRFIRQLIVPNVKSGALSKYAKKIFLAQKPAPLLESPFKDRDHFQLGTLSHTLNIKATGYLELSNWPEVAPDPSVRNVEVIELAKEWTPAGKAKQENSAKKFYSESEEEEDSSDSSSDSESESGSESGEQGESGEEGDSNEDSSEDSSSEQDSESGRESGLENKRTAKRNSKAKGKSDSEDGEKENEKSKTSDSSNDESSSIEDSSSDSESESEPESESESRRVTKEKEKKTKQDRTPLTKDVSLLDLDDFNPVSTPVALPTPALSPSLMADLEGLHLSTSSSVISVSTPAFVPTKTHVLLHRMSGKGLAAHYFFPRQPCIFGDKMVSIQITLNNTTDRKIENIHIGEKKLPIGMKMHVFNPIDSLEPEGSITVSMGIDFCDSTQTASFQLCTKDDCFNVNIQPPVGELLLPVAMSEKDFKKEQGVLTGMNETSAVIIAAPQNFTPSVIFQKVVNVANVGAVPSGQDNIHRFAAKTVHSGSLMLVTVELKEGSTAQLIINTEKTVIGSVLLRELKPVLSQG
